Results deposited as PubChem BioAssay AID1259254 (NCATS, 2017).

Purpose: 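Finding genes that stop cells copying their DNA twice in one cycle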 (primary screen)
System: human HCT116 colorectal cancer cells
Knock-down reagent: single siRNA against human genes
Timing: 3 days
Measurement: 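Nuclei stained with Hoechst and imaged; cell-cycle phase assigned by DNA content; G2 share scaled per plate, non-targeting siRNA 0%, GMNN siRNA 100%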
Scale: G2 robust z-score and G2 cells, % of GMNN control: higher = more G2 cells, more excess DNA replication; raw share of cells in G2: higher = larger share of cells with G2 DNA content
Call rule: 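Active siRNAs have a G2 robust z of 5 or more median absolute deviations over the median, which in these data means about 38% or higher of GMNN control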
This is an unselected part of about 59,000 reagents. Over the whole deposit, about 1,550 (2.6%) got an active call. 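G2 share is only a proxy for re-replication; each gene was hit by three separate siRNAs, and active genes were retested.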 Raw values vary from plate to plate and are shown uncorrected. Entries without a mark were called inactive. The numbers tell different reagents against one gene apart. Not given: the amount of reagent.

The opening 6 entries, to show the layout:
no.	target gene	reagent no.	G2 robust z-score	G2 cells, % of GMNN control	raw share of cells in G2 (%)
1	TRPC4	1	0.324	5.25	7.2
2	TRPC4	2	-1.25	-5.84	2.81
3	TRPC4	3	-0.889	-3.29	3.09
4	PSMD13 (proteasome 26S subunit, non-ATPase 13)	1	3.29	26.1	14
5	PSMD13 (proteasome 26S subunit, non-ATPase 13)	2	1.99	17	9.79
6	PSMD13 (proteasome 26S subunit, non-ATPase 13)	3	0.443	6.08	7

The list itself, repeating the preview:
no.	target gene	reagent no.	G2 robust z-score	G2 cells, % of GMNN control	raw share of cells in G2 (%)
1	TRPC4	1	0.324	5.25	7.2
2	TRPC4	2	-1.25	-5.84	2.81
3	TRPC4	3	-0.889	-3.29	3.09
4	PSMD13 (proteasome 26S subunit, non-ATPase 13)	1	3.29	26.1	14
5	PSMD13 (proteasome 26S subunit, non-ATPase 13)	2	1.99	17	9.79
6	PSMD13 (proteasome 26S subunit, non-ATPase 13)	3	0.443	6.08	7
7	ENO2 (enolase 2)	1	-0.165	1.81	5.89
8	ENO2 (enolase 2)	2	2.35	19.5	12.7
9	ENO2 (enolase 2)	3	0.152	4.04	5.1
10	DHX35 (DEAH-box helicase 35)	1	1.77	15.4	9.82
11	DHX35 (DEAH-box helicase 35)	2	-0.666	-1.72	3.74
12	DHX35 (DEAH-box helicase 35)	3	-0.662	-1.69	4.95
13	ANXA7 (annexin A7)	1	-0.56	-0.971	4.39
14	ANXA7 (annexin A7)	2	-0.306	0.817	5.36
15	ANXA7 (annexin A7)	3	-1.18	-5.31	2.02
16	ZPR1 (ZPR1 zinc finger)	1	1.7	14.9	11.8
17	ZPR1 (ZPR1 zinc finger)	2	-0.739	-2.23	3.01
18	ZPR1 (ZPR1 zinc finger)	3	0.557	6.89	5.78
19	LIMD2 (LIM domain containing 2)	1	-0.0779	2.42	5.07
20	LIMD2 (LIM domain containing 2)	2	1.96	16.7	12.4
21	LIMD2 (LIM domain containing 2)	3	-1.15	-5.1	2.9
22	ELP4 (elongator acetyltransferase complex subunit 4)	1	-1.54	-7.88	1.45
23	ELP4 (elongator acetyltransferase complex subunit 4)	2	0.147	4	5.67
24	ELP4 (elongator acetyltransferase complex subunit 4)	3	0.162	4.11	4.73
25	VRK1 (VRK serine/threonine kinase 1)	1	1.79	15.6	10.4
26	VRK1 (VRK serine/threonine kinase 1)	2	-1.01	-4.17	3.68
27	VRK1 (VRK serine/threonine kinase 1)	3	-0.767	-2.43	2.9
28	HCG9 (HLA complex group 9)	1	-0.272	1.06	5.81
29	HCG9 (HLA complex group 9)	2	1.58	14.1	9.81
30	HCG9 (HLA complex group 9)	3	7.66 (active)	56.9	24.1
31	FTSJ1 (FtsJ RNA 2'-O-methyltransferase 1)	1	0.444	6.09	5.98
32	FTSJ1 (FtsJ RNA 2'-O-methyltransferase 1)	2	2.67	21.7	11.4
33	FTSJ1 (FtsJ RNA 2'-O-methyltransferase 1)	3	-0.563	-0.993	5.71
34	GPR75 (G protein-coupled receptor 75)	1	-0.458	-0.258	5.75
35	GPR75 (G protein-coupled receptor 75)	2	1.78	15.5	9.94
36	GPR75 (G protein-coupled receptor 75)	3	-0.33	0.647	3.47
37	NUFIP1 (nuclear FMR1 interacting protein 1)	1	6.69 (active)	50	28.9
38	NUFIP1 (nuclear FMR1 interacting protein 1)	2	0.225	4.55	5.7
39	NUFIP1 (nuclear FMR1 interacting protein 1)	3	-0.16	1.84	4.59
40	MFGE8 (milk fat globule EGF and factor V/VIII domain containing)	1	-0.531	-0.767	2.94
41	MFGE8 (milk fat globule EGF and factor V/VIII domain containing)	2	-1.13	-4.98	3.5
42	MFGE8 (milk fat globule EGF and factor V/VIII domain containing)	3	-0.646	-1.57	4.75
43	CASP6 (caspase 6)	1	0.488	6.4	7.79
44	CASP6 (caspase 6)	2	0.998	9.99	8.44
45	CASP6 (caspase 6)	3	0.211	4.45	5.57
46	C1QL2 (complement C1q like 2)	1	1.69	14.8	8.43
47	C1QL2 (complement C1q like 2)	2	5.22 (active)	39.7	19.2
48	C1QL2 (complement C1q like 2)	3	0.767	8.36	7.44
49	ATP10B (ATPase phospholipid transporting 10B (putative))	1	2.7	22	15.2
50	ATP10B (ATPase phospholipid transporting 10B (putative))	2	-0.683	-1.84	3.54
51	ATP10B (ATPase phospholipid transporting 10B (putative))	3	0.147	4	5.23
52	ATF7 (activating transcription factor 7)	1	-0.183	1.68	6.42
53	ATF7 (activating transcription factor 7)	2	-0.31	0.783	4.09
54	ATF7 (activating transcription factor 7)	3	2.11	17.8	13.5
55	SLC18A2	1	0.16	4.09	7.06
56	SLC18A2	2	-0.85	-3.01	3.52
57	SLC18A2	3	-0.565	-1.01	3.62
58	LMBRD2 (LMBR1 domain containing 2)	1	-0.368	0.378	4.24
59	LMBRD2 (LMBR1 domain containing 2)	2	-0.167	1.79	3.56
60	LMBRD2 (LMBR1 domain containing 2)	3	2.55	20.9	9.56
61	LINC00607 (long independently transcribed non-coding RNA 607)	1	0.383	5.66	5.91
62	LINC00607 (long independently transcribed non-coding RNA 607)	2	-0.396	0.18	3.29
63	LINC00607 (long independently transcribed non-coding RNA 607)	3	-0.963	-3.81	1.83
64	MRPL38 (mitochondrial ribosomal protein L38)	1	-0.728	-2.15	2.13
65	MRPL38 (mitochondrial ribosomal protein L38)	2	0.00411	3	5.89
66	MRPL38 (mitochondrial ribosomal protein L38)	3	-1.08	-4.6	2.55
67	UBE3B (ubiquitin protein ligase E3B)	1	-1.08	-4.62	2.74
68	UBE3B (ubiquitin protein ligase E3B)	2	-0.424	-0.0169	5.66
69	UBE3B (ubiquitin protein ligase E3B)	3	-0.9	-3.37	3.52
70	PPP1R14A (protein phosphatase 1 regulatory inhibitor subunit 14A)	1	1.18	11.3	6.9
71	PPP1R14A (protein phosphatase 1 regulatory inhibitor subunit 14A)	2	-0.336	0.607	4.99
72	PPP1R14A (protein phosphatase 1 regulatory inhibitor subunit 14A)	3	0.613	7.28	6.5
73	OR51E1 (olfactory receptor family 51 subfamily E member 1)	1	0.648	7.53	6.35
74	OR51E1 (olfactory receptor family 51 subfamily E member 1)	2	-0.435	-0.092	2.88
75	OR51E1 (olfactory receptor family 51 subfamily E member 1)	3	-0.469	-0.336	2.95
76	VPS37D (VPS37D subunit of ESCRT-I)	1	0.44	6.06	5.77
77	VPS37D (VPS37D subunit of ESCRT-I)	2	0.386	5.68	4.86
78	VPS37D (VPS37D subunit of ESCRT-I)	3	-0.133	2.03	3.41
79	XPO1 (exportin 1)	1	-0.463	-0.29	4.38
80	XPO1 (exportin 1)	2	1.04	10.3	9.95
81	XPO1 (exportin 1)	3	-0.236	1.3	4.75
82	TMUB1 (transmembrane and ubiquitin like domain containing 1)	1	-0.215	1.45	2.85
83	TMUB1 (transmembrane and ubiquitin like domain containing 1)	2	0.993	9.96	7.42
84	TMUB1 (transmembrane and ubiquitin like domain containing 1)	3	1.92	16.5	8.34
85	PTGS1 (prostaglandin-endoperoxide synthase 1)	1	-0.577	-1.09	4.26
86	PTGS1 (prostaglandin-endoperoxide synthase 1)	2	-0.524	-0.722	3.9
87	PTGS1 (prostaglandin-endoperoxide synthase 1)	3	-0.326	0.677	5.21
